Test results reported in paper PMC12199305.
No constants are given. Whether binding was seen depends on the method and setting. Some entries that bind do so weakly or less than the wild type.

Biological target: MEF2A (human) (UniProt Q02078)
Test: SPR; Biacore T200, 25 °C; MEF2A immobilised on CM5 chip by amine coupling; class IIa HDACs injected at 40-1.25 nM (2-fold dilutions, in duplicate), 30 uL/min, contact 90 s, dissociation 300 s; HBS-P (10 mM Hepes pH 7.4, 150 mM NaCl, 0.05% P20) for HDAC7 and HDAC9, HBS-P with 1% (v/v) glycerol for HDAC4 and HDAC5; 1:1 kinetic binding model; three independent experiments; both purified

B1: HDAC7 (enzyme, UniProt Q8WUI4 1-952)
chain: MDLRVGQRPPVEPPPEPTLLALQRPQRLHHHLFLAGLQQQRSVEPMRLSMDTPMPELQVGPQEQELRQLLHKDKSKRSAVASSVVKQKLAEVILKKQQAALERTVHPNSPGIPYRTLEPLETEGATRSMLSSFLPPVPSLPSDPPEHFPLRKTVSEPNLKLRYKPKKSLERRKNPLLRKESAPPSLRRRPAETLGDSSPSSSSTPASGCSSPNDSEHGPNPILGSEALLGQRLRLQETSVAPFALPTVSLLPAITLGLPAPARADSDRRTHPTLGPRGPILGSPHTPLFLPHGLEPEAGGTLPSRLQPILLLDPSGSHAPLLTVPGLGPLPFHFAQSLMTTERLSGSGLHWPLSRTRSEPLPPSATAPPPPGPMQPRLEQLKTHVQVIKRSAKPSEKPRLRQIPSAEDLETDGGGPGQVVDDGLEHRELGHGQPEARGPAPLQQHPQVLLWEQQRLAGRLPRGSTGDTVLLPLAQGGHRPLSRAQSSPAAPASLSAPEPASQARVLSSSETPARTLPFTTGLIYDSVMLKHQCSCGDNSRHPEHAGRIQSIWSRLQERGLRSQCECLRGRKASLEELQSVHSERHVLLYGTNPLSRLKLDNGKLAGLLAQRMFVMLPCGGVGVDTDTIWNELHSSNAARWAAGSVTDLAFKVASRELKNGFAVVRPPGHHADHSTAMGFCFFNSVAIACRQLQQQSKASKILIVDWDVHHGNGTQQTFYQDPSVLYISLHRHDDGNFFPGSGAVDEVGAGSGEGFNVNVAWAGGLDPPMGDPEYLAAFRIVVMPIAREFSPDLVLVSAGFDAAEGHPAPLGGYHVSAKCFGYMTQQLMNLAGGAVVLALEGGHDLTAICDASEACVAALLGNRVDPLSEEGWKQKPNLNAIRSLEAVIRVHSKYWGCMQRLASCPDSWVPRVPGADKEEVEAVTALASLSVGILAEDRPSEQLVEEEEPMNL
  binding: binds
